# Data published in the supplement of paper PMC6411743.
# ± gives the standard deviation of the averaged measurements. The list shows a part of the results, in another mix than the full data.
# Columns and labels:
# Experiment in all cases: NP40-soluble protein abundance relative to vehicle (solubility fold change) (ratio); higher = more soluble protein in presence of AMP-PNP
# [1] = target: T1, A0A087WW65|O75027 and related entries (UniProt O75027)
# T1 sequence (whole entry): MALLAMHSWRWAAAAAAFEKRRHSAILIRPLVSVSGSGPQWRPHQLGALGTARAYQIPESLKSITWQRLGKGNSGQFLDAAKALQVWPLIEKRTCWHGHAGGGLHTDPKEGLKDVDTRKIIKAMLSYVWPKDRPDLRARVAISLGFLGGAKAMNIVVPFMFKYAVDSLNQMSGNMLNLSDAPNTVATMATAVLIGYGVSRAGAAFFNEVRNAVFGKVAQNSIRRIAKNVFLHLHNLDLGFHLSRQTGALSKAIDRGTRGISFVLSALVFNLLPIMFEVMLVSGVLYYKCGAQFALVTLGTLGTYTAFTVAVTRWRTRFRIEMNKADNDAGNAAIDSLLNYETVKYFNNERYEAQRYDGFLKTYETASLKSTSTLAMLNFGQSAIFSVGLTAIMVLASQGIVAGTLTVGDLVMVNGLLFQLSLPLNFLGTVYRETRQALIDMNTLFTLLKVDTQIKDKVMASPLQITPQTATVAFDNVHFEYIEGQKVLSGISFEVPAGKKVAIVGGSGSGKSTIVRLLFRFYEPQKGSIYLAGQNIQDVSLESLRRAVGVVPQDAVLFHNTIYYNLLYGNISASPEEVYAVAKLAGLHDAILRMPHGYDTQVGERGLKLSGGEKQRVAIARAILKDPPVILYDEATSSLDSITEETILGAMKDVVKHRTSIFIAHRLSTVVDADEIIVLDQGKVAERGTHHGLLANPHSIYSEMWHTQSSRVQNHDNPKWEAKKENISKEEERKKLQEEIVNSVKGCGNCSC
# Method in brief: (§1)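 Eight concentrations, 0.1 to 10 mM, were tested on Jurkat crude lysate for 10 min at room temperature and then 3 min at 37 °C, in three independent experiments. The lysate was solubilised with 0.8% NP40 and benzonase, ultracentrifuged, and the supernatant TMT-labelled for LC-MS/MS. Each value is the fold change against the detergent-processed vehicle in its own replicate, from vsn-normalised intensities.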
# [2] = target: T2, A0A087WXR2|F5H1Z6 and related entries (UniProt Q9Y365)
# T2 sequence (whole entry): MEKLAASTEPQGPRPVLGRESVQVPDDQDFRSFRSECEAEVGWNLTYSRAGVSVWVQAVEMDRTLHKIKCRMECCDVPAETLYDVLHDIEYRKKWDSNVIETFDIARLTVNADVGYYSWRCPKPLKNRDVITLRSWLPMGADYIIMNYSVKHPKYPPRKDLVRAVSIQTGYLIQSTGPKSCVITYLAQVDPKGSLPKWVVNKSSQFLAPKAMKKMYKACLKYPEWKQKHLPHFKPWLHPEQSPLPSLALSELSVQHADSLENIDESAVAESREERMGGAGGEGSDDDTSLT
# Method in brief: as §1
# [3] = target: T3, A0A087X060|G3V2W9 and related entries (UniProt Q56P03)
# T3 sequence (whole entry): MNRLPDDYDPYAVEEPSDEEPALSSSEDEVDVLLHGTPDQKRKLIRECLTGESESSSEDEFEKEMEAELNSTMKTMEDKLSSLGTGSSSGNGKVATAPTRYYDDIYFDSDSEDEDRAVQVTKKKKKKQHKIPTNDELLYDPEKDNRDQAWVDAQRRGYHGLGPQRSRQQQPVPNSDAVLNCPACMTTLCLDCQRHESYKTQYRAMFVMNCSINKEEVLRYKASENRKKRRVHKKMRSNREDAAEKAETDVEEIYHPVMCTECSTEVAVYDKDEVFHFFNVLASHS
# Method in brief: as §1
# [4] = target: T4, A0A087X0R6|Q9UMY4 and related entries (UniProt Q9UMY4)
# T4 sequence (whole entry): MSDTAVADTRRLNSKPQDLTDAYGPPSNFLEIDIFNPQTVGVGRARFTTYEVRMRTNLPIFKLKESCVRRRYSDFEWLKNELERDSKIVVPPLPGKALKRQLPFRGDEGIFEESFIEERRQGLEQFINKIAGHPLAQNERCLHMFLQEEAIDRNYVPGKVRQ
# Method in brief: as §1
# [5] = target: T5, A0A087X117|A0A0G2JN29|Q15155 (UniProt Q15155)
# T5 sequence (whole entry): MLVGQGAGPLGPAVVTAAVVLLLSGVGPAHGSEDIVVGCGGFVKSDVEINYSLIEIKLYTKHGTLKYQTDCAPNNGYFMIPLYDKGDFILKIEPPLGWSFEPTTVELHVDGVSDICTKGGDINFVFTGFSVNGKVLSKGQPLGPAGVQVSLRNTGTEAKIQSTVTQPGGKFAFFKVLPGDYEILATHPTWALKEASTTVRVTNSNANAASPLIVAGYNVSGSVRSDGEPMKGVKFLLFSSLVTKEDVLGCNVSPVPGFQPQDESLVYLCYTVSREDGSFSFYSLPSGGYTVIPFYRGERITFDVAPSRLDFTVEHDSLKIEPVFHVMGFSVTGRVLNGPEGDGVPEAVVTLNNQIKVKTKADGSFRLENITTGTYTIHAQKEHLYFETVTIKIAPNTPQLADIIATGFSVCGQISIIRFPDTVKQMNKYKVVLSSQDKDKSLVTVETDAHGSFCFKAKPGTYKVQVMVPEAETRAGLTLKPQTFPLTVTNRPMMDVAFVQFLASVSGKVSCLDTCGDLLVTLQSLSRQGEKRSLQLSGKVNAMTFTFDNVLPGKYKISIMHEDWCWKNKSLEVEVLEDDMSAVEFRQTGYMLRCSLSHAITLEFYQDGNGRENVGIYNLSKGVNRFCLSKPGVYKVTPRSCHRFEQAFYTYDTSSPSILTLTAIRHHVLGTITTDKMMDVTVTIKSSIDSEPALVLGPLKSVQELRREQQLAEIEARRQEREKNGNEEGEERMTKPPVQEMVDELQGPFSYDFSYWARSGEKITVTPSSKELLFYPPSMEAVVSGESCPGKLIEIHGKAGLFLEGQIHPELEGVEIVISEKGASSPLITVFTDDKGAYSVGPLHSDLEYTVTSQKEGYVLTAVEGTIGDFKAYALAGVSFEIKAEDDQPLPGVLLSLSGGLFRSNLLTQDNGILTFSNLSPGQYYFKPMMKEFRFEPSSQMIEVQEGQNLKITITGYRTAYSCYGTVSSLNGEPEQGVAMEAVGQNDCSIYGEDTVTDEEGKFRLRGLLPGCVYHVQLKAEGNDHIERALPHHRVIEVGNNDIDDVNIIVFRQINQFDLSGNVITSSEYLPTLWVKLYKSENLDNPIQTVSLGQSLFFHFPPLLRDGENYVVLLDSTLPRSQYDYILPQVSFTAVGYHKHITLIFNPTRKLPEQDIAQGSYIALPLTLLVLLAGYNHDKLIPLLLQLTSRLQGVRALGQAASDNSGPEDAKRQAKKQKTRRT
# Method in brief: as §1
smiles,measurement,setting,value
Nc1ncnc2c1ncn2[C@@H]1O[C@H](COP(=O)(O)OP(=O)(O)NP(=O)(O)O)[C@@H](O)[C@H]1O [adenylyl imidodiphosphate],NP40-soluble protein abundance,[1]; concentration: 1mM,1.03 ± 0.03
same,NP40-soluble protein abundance,[1]; concentration: 2mM,0.983 ± 0.032
same,NP40-soluble protein abundance,[1]; concentration: 4mM,1.004 ± 0.0085
same,NP40-soluble protein abundance,[1]; concentration: 6mM,0.97 ± 0.032
same,NP40-soluble protein abundance,[1]; concentration: 8mM,0.985 ± 0.02
same,NP40-soluble protein abundance,[1]; concentration: 10mM,0.956 ± 0.037
same,NP40-soluble protein abundance,[2]; concentration: 1mM,1.01 ± 0.039
same,NP40-soluble protein abundance,[2]; concentration: 2mM,1.02 ± 0.011
same,NP40-soluble protein abundance,[2]; concentration: 4mM,1.04 ± 0.025
same,NP40-soluble protein abundance,[2]; concentration: 6mM,1.05 ± 0.021
same,NP40-soluble protein abundance,[2]; concentration: 8mM,1.05 ± 0.065
same,NP40-soluble protein abundance,[2]; concentration: 10mM,1.08 ± 0.042
same,NP40-soluble protein abundance,[3]; concentration: 1mM,1.03 ± 0.048
same,NP40-soluble protein abundance,[3]; concentration: 2mM,1.02 ± 0.013
same,NP40-soluble protein abundance,[3]; concentration: 4mM,0.995 ± 0.03
same,NP40-soluble protein abundance,[3]; concentration: 6mM,0.989 ± 0.063
same,NP40-soluble protein abundance,[3]; concentration: 8mM,0.974 ± 0.01
same,NP40-soluble protein abundance,[3]; concentration: 10mM,1.01 ± 0.013
same,NP40-soluble protein abundance,[4]; concentration: 1mM,1.06 ± 0.029
same,NP40-soluble protein abundance,[4]; concentration: 2mM,1.11 ± 0.041
same,NP40-soluble protein abundance,[4]; concentration: 4mM,1.07 ± 0.059
same,NP40-soluble protein abundance,[4]; concentration: 6mM,1 ± 0.036
same,NP40-soluble protein abundance,[4]; concentration: 8mM,1.05 ± 0.034
same,NP40-soluble protein abundance,[4]; concentration: 10mM,1.02 ± 0.03
same,NP40-soluble protein abundance,[5]; concentration: 1mM,1.01 ± 0.016
same,NP40-soluble protein abundance,[5]; concentration: 2mM,1.03 ± 0.03
same,NP40-soluble protein abundance,[5]; concentration: 4mM,1 ± 0.02

# Reprinted at random: 2 records from the list, in no set order.
smiles,measurement,setting,value
Nc1ncnc2c1ncn2[C@@H]1O[C@H](COP(=O)(O)OP(=O)(O)NP(=O)(O)O)[C@@H](O)[C@H]1O [adenylyl imidodiphosphate],NP40-soluble protein abundance,[3]; concentration: 10mM,1.01 ± 0.013
same,NP40-soluble protein abundance,[4]; concentration: 10mM,1.02 ± 0.03
